Consider 1 substance from US7144859 (dated 2006).

This series is described as follows: general procedure: Fmoc solid-phase peptide synthesis; Rink amide MBHA; HBTU (printed HBUT) / diisopropylethyl amine. Conditions: whole synthesis, scale 0.087 mmole.

In turn, “H-Cpa-cyclo(D-Cys-Pal-D-Trp-Lys-β-Ala-Cys)-Nal-NH2” showed an isolated mass of 26 mg.
